By UniProt entry, the sequences of proteins in these tests, tags left out. Where a name states a change or a piece, a line headed by the entry shows the natural chain unless it says otherwise.
UniProt P35916, whole entry, looked up: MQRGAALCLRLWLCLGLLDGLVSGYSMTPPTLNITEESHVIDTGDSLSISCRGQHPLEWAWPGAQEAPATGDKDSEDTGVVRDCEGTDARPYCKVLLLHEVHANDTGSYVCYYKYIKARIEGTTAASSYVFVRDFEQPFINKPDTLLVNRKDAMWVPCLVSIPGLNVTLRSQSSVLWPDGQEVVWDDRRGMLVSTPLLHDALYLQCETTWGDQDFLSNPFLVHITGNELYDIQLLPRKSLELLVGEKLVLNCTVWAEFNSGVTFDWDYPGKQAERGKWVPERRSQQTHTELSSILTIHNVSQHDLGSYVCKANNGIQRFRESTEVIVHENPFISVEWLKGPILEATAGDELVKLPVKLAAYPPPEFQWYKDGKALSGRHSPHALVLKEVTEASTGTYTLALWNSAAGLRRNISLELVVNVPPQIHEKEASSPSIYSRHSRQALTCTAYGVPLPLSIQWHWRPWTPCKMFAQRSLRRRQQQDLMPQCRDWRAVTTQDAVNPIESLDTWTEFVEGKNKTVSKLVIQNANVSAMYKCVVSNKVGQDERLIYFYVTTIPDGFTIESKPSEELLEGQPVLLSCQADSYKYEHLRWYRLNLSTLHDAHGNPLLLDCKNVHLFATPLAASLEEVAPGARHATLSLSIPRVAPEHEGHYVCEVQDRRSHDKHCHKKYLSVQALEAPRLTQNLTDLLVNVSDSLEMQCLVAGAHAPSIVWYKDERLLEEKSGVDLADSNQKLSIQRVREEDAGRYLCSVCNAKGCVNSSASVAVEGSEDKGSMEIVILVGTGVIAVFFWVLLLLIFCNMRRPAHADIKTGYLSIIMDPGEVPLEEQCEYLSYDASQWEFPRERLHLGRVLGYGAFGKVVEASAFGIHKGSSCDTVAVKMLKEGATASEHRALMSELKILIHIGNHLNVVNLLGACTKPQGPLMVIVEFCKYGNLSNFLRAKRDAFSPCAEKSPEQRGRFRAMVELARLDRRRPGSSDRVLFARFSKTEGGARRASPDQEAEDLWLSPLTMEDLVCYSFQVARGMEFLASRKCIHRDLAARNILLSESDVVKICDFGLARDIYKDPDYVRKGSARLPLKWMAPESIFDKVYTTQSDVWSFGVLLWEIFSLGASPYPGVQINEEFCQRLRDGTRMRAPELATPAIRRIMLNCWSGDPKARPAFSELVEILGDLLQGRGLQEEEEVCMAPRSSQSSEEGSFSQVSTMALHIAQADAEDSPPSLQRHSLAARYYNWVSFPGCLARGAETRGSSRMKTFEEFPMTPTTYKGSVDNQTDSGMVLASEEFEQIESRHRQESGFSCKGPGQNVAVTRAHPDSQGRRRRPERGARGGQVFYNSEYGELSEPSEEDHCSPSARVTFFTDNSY
UniProt P35968, whole entry, looked up: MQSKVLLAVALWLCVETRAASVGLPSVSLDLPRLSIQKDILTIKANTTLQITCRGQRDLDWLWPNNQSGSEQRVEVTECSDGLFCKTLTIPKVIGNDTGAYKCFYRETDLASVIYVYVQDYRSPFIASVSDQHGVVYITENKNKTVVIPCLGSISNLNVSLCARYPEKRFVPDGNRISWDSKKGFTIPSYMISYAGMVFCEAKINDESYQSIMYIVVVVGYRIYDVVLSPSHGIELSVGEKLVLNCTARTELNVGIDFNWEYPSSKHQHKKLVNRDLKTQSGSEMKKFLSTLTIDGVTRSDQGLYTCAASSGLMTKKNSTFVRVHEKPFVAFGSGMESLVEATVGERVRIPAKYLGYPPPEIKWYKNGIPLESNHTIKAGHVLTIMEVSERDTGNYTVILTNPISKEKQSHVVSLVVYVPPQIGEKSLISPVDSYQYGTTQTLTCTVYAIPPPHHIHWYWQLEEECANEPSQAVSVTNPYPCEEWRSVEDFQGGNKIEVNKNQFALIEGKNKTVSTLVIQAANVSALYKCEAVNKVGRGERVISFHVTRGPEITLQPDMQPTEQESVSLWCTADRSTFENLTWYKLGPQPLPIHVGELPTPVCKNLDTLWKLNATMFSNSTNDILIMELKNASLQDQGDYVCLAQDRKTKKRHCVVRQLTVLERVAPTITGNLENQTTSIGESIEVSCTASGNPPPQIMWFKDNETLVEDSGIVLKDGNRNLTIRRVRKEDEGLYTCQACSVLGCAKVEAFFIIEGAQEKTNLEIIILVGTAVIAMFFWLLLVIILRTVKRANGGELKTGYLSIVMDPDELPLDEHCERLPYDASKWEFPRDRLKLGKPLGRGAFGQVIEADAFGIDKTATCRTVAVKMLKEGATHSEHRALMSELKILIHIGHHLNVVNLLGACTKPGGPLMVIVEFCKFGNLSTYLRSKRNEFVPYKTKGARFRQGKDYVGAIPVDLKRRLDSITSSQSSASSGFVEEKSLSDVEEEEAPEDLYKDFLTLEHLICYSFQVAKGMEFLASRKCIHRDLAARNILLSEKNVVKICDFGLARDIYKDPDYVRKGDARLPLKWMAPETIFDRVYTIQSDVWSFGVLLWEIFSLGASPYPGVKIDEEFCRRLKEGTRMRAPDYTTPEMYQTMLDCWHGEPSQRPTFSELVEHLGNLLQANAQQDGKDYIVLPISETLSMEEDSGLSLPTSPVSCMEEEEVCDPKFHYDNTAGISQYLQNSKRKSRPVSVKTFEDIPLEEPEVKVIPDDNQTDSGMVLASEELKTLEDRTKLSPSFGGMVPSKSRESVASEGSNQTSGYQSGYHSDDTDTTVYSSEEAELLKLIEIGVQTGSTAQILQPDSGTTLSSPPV
UniProt P79208, whole entry, looked up: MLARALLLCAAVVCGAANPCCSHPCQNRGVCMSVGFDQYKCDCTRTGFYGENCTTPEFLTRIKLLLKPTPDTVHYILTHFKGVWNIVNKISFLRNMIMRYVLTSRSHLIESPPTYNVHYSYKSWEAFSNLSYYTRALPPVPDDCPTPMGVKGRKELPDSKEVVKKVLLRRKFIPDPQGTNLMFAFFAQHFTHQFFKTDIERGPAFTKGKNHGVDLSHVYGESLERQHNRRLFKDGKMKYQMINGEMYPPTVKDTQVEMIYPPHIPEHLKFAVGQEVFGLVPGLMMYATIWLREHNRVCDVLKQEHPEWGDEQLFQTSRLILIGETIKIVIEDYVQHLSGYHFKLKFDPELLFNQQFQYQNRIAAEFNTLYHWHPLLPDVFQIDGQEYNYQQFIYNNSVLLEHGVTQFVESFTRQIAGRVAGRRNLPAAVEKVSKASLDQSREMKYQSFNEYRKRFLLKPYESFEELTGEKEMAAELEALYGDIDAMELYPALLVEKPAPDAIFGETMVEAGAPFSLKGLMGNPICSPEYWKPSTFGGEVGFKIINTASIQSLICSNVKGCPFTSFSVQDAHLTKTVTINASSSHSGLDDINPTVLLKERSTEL
UniProt P22734: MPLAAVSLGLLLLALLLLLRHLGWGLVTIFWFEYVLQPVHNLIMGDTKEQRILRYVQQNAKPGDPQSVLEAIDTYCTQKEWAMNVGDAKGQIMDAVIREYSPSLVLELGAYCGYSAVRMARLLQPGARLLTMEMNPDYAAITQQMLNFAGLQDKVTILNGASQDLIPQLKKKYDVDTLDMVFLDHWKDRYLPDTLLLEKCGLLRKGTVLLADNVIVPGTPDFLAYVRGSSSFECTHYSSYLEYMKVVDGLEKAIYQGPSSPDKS
UniProt P29476, whole entry, looked up: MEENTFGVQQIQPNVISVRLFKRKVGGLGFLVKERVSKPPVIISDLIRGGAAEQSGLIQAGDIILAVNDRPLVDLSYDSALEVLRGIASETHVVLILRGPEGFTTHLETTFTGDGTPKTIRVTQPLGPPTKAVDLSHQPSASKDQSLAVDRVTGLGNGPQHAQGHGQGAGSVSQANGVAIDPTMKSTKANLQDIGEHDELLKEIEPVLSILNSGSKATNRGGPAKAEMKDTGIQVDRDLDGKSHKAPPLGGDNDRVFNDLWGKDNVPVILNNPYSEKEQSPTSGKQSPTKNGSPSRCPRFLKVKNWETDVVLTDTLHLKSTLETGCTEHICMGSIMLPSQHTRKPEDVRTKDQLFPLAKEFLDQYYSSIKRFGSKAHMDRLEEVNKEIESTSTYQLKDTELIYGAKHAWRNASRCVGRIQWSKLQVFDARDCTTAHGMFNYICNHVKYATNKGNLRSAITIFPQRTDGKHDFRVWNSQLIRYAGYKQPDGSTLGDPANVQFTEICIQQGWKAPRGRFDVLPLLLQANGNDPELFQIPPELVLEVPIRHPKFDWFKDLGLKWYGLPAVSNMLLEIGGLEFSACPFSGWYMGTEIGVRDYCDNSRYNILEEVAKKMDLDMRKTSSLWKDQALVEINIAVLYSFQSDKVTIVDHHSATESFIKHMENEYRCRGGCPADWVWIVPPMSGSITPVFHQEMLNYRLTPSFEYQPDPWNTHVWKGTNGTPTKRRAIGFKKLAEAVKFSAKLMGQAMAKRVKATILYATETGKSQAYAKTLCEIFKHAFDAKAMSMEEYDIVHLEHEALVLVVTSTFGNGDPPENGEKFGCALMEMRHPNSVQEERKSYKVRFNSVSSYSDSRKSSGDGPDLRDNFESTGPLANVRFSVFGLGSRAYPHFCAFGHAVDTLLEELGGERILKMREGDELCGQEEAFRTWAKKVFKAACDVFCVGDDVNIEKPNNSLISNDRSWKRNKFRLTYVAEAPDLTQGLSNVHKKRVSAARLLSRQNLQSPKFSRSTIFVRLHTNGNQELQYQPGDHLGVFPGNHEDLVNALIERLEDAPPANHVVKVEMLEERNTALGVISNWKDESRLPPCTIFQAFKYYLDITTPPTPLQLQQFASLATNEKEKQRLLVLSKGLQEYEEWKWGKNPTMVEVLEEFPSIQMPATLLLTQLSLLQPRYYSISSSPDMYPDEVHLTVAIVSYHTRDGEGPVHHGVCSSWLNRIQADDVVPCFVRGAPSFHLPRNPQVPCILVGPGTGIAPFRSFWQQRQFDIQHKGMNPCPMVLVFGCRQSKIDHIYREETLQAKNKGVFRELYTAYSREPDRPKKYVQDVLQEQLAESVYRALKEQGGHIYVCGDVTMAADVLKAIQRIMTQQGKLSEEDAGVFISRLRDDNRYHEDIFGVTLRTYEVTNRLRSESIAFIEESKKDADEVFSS
UniProt P05979, whole entry, looked up: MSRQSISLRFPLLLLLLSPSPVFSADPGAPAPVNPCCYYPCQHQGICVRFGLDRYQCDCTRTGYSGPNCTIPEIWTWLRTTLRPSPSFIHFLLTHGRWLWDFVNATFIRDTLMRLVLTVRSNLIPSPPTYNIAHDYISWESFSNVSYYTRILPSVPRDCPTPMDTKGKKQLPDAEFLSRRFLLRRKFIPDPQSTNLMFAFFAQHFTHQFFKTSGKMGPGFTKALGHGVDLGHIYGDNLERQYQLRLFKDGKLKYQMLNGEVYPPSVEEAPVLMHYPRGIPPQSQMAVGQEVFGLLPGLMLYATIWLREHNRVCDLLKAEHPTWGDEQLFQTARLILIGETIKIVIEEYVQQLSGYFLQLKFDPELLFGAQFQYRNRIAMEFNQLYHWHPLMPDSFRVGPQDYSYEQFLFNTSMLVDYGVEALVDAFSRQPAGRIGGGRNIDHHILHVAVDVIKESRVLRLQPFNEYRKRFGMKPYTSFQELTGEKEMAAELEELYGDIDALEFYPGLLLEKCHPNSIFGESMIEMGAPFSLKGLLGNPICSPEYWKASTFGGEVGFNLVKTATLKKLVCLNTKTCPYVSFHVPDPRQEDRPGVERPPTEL

Inconclusive means that the source gave no clear call. Such entries were picked first, then a sample of the others. For part of these data: Potencies beside an inconclusive call are fits to weak or partial responses and may not hold up. Calls of active or inactive are those of the source. How the source made its calls: active means hit-call score of the fitted dose curve at least 0.9, where 1 is the maximum; inconclusive means response in the unintended direction; inactive means score below 0.9.
The compounds below were run against human Vascular Endothelial Growth Factor Receptor 3 (VEGFR3), FLT4 (gene 2324) (UniProt P35916) (assay: NVS_ENZ_hVEGFR3: NovaScreen (NVS) Enzymatic Assay for human Vascular Endothelial Growth Factor Receptor 3 (VEGFR3) (AID 2283229)).
In short: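 Chemicals first run in duplicate at 25 uM, with actives re-tested in concentration series to a top of 50 uM. Recombinant VEGFR3 activity measured after 1 h via fluorescence with mobility-shift product separation; inhibition fitted relative to DMSO.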
For `CCCc1ccccc1`, the AC50 was inconclusive: 25 µM. `FC(F)(F)C(F)(F)C(F)(F)C(F)(F)C(F)(F)C(F)(F)CCI` was tested, and the AC50 was inconclusive: 12.5 µM. For `CC(C)CC(C)(O)C#CC(C)(O)CC(C)C` (stereo not drawn), the AC50 was inconclusive: 25 µM.

Each compound was assayed against human Vascular Endothelial Growth Factor Receptor 2 (VEGFR2), KDR (gene 3791) (UniProt P35968) (assay: NVS_ENZ_hVEGFR2: NovaScreen (NVS) Enzymatic Assay for human Vascular Endothelial Growth Factor Receptor 2 (VEGFR2) (AID 2283230)).
In short: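 Cell-free recombinant VEGFR2 kinase, fluorescent substrate with electrophoretic mobility-shift separation; read 1 h after dosing. Screened at 25 uM in duplicate, hits to concentration-response up to 50 uM; loss-of-signal versus DMSO.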
With `Cc1ccc(Cl)cc1` the AC50 was inconclusive: 25 µM. `Cc1ccc(S(=O)(=O)NC(=O)NN2CCCCCC2)cc1` was tested, and the outcome was “inactive”. With `CCCc1ccccc1` the AC50 was inconclusive: 1.07 µM. In the case of `CCOc1cccc(-n2cc(C(=O)N3CCN(c4cc(C(=O)O)c5ccccc5c4)CC3)nc2-c2ccc(C)cc2)c1`, the outcome is reported as “inactive”. `Nc1nc(Cl)nc2c1ncn2[C@H]1C[C@H](O)[C@@H](CO)O1` was tested, and the AC50 was active: 4.88 µM. In the case of `O=C1NC(=O)C(c2ccccc2)(c2ccccc2)N1`, the AC50 is reported as inconclusive: 0.152 µM. `CCCCC(CC)COP(=O)(OCC(CC)CCCC)OCC(CC)CCCC` (stereo not drawn) was tested, and the AC50 was inconclusive: 25 µM. For `Clc1nc(Cl)c(Cl)c(Cl)c1Cl`, the AC50 was inconclusive: 0.192 µM.

Each compound was assayed against sheep Cyclooxygenase-2 (Cox2), PTGS2 (gene 443460) (UniProt P79208) (assay: NVS_ENZ_oCOX2: NovaScreen (NVS) Enzymatic Assay for sheep Cyclooxygenase-2 (Cox2) (AID 2283231)).
In short: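 Ovine placental enzyme, cell-free; chemical added, 0.66 h, absorbance (colorimetric). Screen 25 uM in duplicate; ≥threshold hits titrated, top 50 uM. Inhibition = signal loss vs DMSO.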
With `CCCCCCC(=O)OCC` the AC50 was inconclusive: 0.197 µM. With `COS(C)(=O)=O` the AC50 was inconclusive: 25 µM. In the case of `C=O`, the AC50 is reported as inconclusive: 26 µM.

These compounds were tested against rat Catechol-O-Methyl Transferase (COMT), Comt (gene 24267) (UniProt P22734) (assay: NVS_ENZ_rCOMT: NovaScreen (NVS) Enzymatic Assay for rat Catechol-O-Methyl Transferase (COMT) (AID 2283235)).
In short: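 Rat dorsal striatum extract served as COMT source; product quantified by HPLC/spectrophotometry, read at 0 h after dosing. Primary single-concentration screen at 25 uM, followed by concentration series to a 50 uM maximum.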
With `COC(=O)c1c(Cl)nn(C)c1S(=O)(=O)NC(=O)Nc1nc(OC)cc(OC)n1` the AC50 was inconclusive: 25 µM. `O=C(NS(=O)(=O)/C=C/c1cccs1)c1ccc(F)cc1Br` was tested, and the AC50 was inconclusive: 9.36 µM. In the case of `O=C(O)c1cccnc1`, the AC50 is reported as inconclusive: 25 µM. `CC(=O)OCCOCCOCCOC(C)=O` was tested, and the AC50 was inconclusive: 0.153 µM. `O=C1c2c(O)cccc2Cc2cccc(O)c21` was tested, and the AC50 was active: 12.1 µM. With `NCCOCCOCCN` the AC50 was inconclusive: 0.666 µM. `O=C1O[C@H]([C@@H](O)CO)C(O)=C1O` was tested, and the AC50 was active: 11.5 µM.

Each compound was assayed against rat Constitutive Nitric Oxide Synthase (CNOS), Nos1 (gene 24598) (UniProt P29476) (assay: NVS_ENZ_rCNOS: NovaScreen (NVS) Enzymatic Assay for rat Constitutive Nitric Oxide Synthase (CNOS) (AID 2283236)).
In short: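 Single 25 uM duplicate screen, then concentration series to 50 uM for chemicals meeting threshold. Rat brain membrane-derived CNOS activity detected radiometrically by filtration and scintillation counting, 1 h after compound addition; DMSO as baseline.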
With `NC(=O)N1C(=O)C(C(=O)c2cc(Cl)cs2)c2cc(F)c(Cl)cc21` (stereo not drawn) the outcome was “inactive”. `O=C1c2c(O)cccc2Cc2cccc(O)c21` was tested, and the AC50 was active: 5.47 µM. In the case of `FC(F)(F)C(F)(F)C(F)(F)C(F)(F)C(F)(F)C(F)(F)CCI`, the outcome is reported as “inactive”.

These compounds were tested against sheep Cyclooxygenase-1 (Cox1), PTGS1 (gene 443551) (UniProt P05979) (assay: NVS_ENZ_oCOX1: NovaScreen (NVS) Enzymatic Assay for sheep Cyclooxygenase-1 (Cox1) (AID 2283239);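 further: actives reduce cyclooxygenase activity so potencies are for inhibitors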).
In short: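 Ovine seminal vesicle extract; absorbance (colorimetric) enzyme read-out at 0.66 h post-dose. Primary: single conc 25 uM, duplicate. Follow-up: concentration series on actives. Activity = signal loss vs DMSO baseline.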
In the case of `CCC(C)OC(=O)N1CCCCC1CCO` (stereo not drawn), the AC50 is reported as inconclusive: 25 µM. With `Cc1ccc(Cl)cc1` the outcome was “inactive”. `CCOC(=O)C(=O)OCC` was tested, and the AC50 was inconclusive: 25 µM. `CCCCCCC(=O)OCC` was tested, and the outcome was “inactive”. `CC(=O)OCCc1ccccc1` was tested, and the AC50 was inconclusive: 5.46 µM. In the case of `CC(C)(C)c1ccc(O)c(O)c1`, the AC50 is reported as inconclusive: 1.35 µM. `Cc1ccc2ccccc2n1` was tested, and the AC50 was inconclusive: 23.5 µM. `CC(CCO)CCCC(C)(C)O` (stereo not drawn) was tested, and the AC50 was inconclusive: 28.5 µM. `O=c1[nH]nnc2ccccc12` was tested, and the AC50 was active: 0.401 µM.

Reference: PubChem BioAssay (EPA / NIEHS)
